Data published in patent CN113307874A.
Changes are numbered by the printed parent chain. These are yes or no findings as the source states them, for the method shown. Some binding calls cover weakened binding; strength is not graded here. Values belong to the binder of their own block, whether it stands above or below them.

Tests used:
[1] = target: T1, 人LAG3抗原 (ACRO, Cat.LA3-H5222) (human) (UniProt P18627); experiment: indirect ELISA, coated human LAG3
T1 sequence (looked up): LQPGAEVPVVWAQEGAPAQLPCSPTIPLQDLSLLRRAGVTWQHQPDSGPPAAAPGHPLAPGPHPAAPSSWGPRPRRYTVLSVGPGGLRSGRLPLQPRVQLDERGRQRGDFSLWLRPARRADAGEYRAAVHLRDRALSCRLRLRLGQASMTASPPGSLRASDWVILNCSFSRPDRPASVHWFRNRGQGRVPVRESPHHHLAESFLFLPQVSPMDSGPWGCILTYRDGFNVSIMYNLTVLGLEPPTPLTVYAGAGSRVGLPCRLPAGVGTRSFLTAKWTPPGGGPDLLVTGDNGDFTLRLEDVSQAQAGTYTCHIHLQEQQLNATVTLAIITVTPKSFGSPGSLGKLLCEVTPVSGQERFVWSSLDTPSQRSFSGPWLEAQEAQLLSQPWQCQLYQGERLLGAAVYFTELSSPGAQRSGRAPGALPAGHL

[2] = target: T2, 过表达人LAG3抗原的Jurkat/LAG3细胞表面的人LAG3 (human) (UniProt P18627); experiment: indirect flow cytometry on Jurkat/LAG3 cells
T2 sequence (looked up): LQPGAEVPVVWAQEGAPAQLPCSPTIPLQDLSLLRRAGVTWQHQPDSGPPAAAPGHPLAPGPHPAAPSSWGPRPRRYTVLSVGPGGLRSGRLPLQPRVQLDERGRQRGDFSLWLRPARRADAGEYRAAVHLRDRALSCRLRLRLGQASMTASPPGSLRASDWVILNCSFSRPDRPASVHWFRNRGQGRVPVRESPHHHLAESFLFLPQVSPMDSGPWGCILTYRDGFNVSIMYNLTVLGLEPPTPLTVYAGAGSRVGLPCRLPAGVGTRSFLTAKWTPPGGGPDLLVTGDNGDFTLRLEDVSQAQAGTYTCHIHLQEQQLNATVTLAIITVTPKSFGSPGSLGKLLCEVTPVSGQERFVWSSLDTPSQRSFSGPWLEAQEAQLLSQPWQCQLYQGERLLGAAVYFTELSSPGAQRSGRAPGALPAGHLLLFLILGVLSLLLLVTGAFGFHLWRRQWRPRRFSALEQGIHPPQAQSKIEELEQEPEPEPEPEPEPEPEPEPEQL

binding [1]: binds | binding [2]: binds
B1: 鼠源抗LAG3抗体 mL3B2 (antibody, V domains shown)
VH: EVQLQQSGAELVRPGASVKLSCKALGYRFTDFEVHWVKLTPVHGLEWIGAIHPGSGAIAYNQKVKGKATLTADKSSSTAYMELSVLTSEDSAVYYCTSYGWNDWGQGTTLTVSS
VL: DIEITQSPSSMYASLGERVTITCKASQDINSYLSWFQQKPGKSPKTLIYRANRLVDGVPSRFSGSGSGQDYSLTISSLEYEDMGIYYCLQYDEFPYTFGGGTKLELKR

binding [1]: binds | binding [2]: binds
B2: 鼠源抗LAG3抗体 mL4F6 (antibody, V domains shown)
VH: B1 VH with A57G, I58T, V64F, V85R, S98T, T109I
VL: DIFMKQSHKFMSTSVGDRVSITCKASQDVGTAVAWYQQKPGQSPKLLISWASTRHTGVPDRFTGSGSGTDFTLTITNVQSEDLADYLCQQYNNFPYTFGGGTKLEIKR

binding [1]: binds | binding [2]: binds
B3: 人源化抗体 hmL4F6 (antibody, V domains shown)
VH: EVQLVQSGAEVKKPGSSVKLSCKALGYRFTDFEVHWVKLTPGQGLEWIGAIHPGSGGTAYNQKFQGRVTLTADKSSSTAYMELSRLRSEDTAVYYCTTYGWNDWGQGTLVTVS
VL: DIQMTQSPSSLSASVGDRVTITCKASQDVGTAVAWYQQKPGKVPKLLISWASTRHTGVPSRFSGSGSGTDFTLTISSLQPEDVADYLCQQYNNFPYTFGGGTKVEIK
